PubChem BioAssay AID1508597 – Cure First – 2020
The deposit covers about 2,100 reagents; shown is an unselected part. 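Calls flag viability under 80% in either arm, not effects specific to rucaparib; the reference for percent is not stated.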 Not stated in the record: the 100% reference.

Purpose: 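Knock-downs altering ovarian cancer cell survival with or without PARP inhibitor rucaparib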 (primary screen)
Cell system: human ovarian carcinoma lines grown from tumours: OCI-P5x (papillary serous) and OCI-C5x (clear cell)
Reagents: siRNA pool against human genes, 1.25 pmol siRNA per well
Duration: 72 h or 96 h, depending on the cell culture
Challenge: rucaparib 20 µM (about IC30) or vehicle, present until read-out
Measurement: 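ATP luminescence measured at 72 or 96 h according to the culture, then normalised and expressed as percent viability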
Reading the numbers: viability, normalised: higher = more viable cells remaining
Hit rule: 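Active when normalised viability falls below 80 percent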
Calls: active = viability under 80%; inactive = viability 80% or more

no.	Gene	rucaparib or vehicle	cell line	technical replicate	viability, normalised (%)	outcome
1	ACVR2B (activin A receptor type 2B)	Rucaparib	OCI-C5x (clear cell)	1	46.7	active
2	ACVR2B (activin A receptor type 2B)	Rucaparib	OCI-C5x (clear cell)	2	34.9	active
3	ACVR2B (activin A receptor type 2B)	Rucaparib	OCI-C5x (clear cell)	3	38.1	active
4	ACVR2B (activin A receptor type 2B)	Rucaparib	OCI-P5x (serous)	1	71.2	active
5	ACVR2B (activin A receptor type 2B)	Rucaparib	OCI-P5x (serous)	2	69.1	active
6	ACVR2B (activin A receptor type 2B)	Rucaparib	OCI-P5x (serous)	3	76.8	active
7	ACVR2B (activin A receptor type 2B)	Vehicle	OCI-C5x (clear cell)	1	116	inactive
8	ACVR2B (activin A receptor type 2B)	Vehicle	OCI-C5x (clear cell)	2	59.3	active
9	ACVR2B (activin A receptor type 2B)	Vehicle	OCI-C5x (clear cell)	3	56.6	active
10	ACVR2B (activin A receptor type 2B)	Vehicle	OCI-P5x (serous)	1	66.2	active
11	ACVR2B (activin A receptor type 2B)	Vehicle	OCI-P5x (serous)	2	51.7	active
12	ACVR2B (activin A receptor type 2B)	Vehicle	OCI-P5x (serous)	3	74.9	active
13	CDC42BPB (CDC42 binding protein kinase beta)	Rucaparib	OCI-C5x (clear cell)	1	81.9	inactive
14	CDC42BPB (CDC42 binding protein kinase beta)	Rucaparib	OCI-C5x (clear cell)	2	86.2	inactive
15	CDC42BPB (CDC42 binding protein kinase beta)	Rucaparib	OCI-C5x (clear cell)	3	43.2	active
16	CDC42BPB (CDC42 binding protein kinase beta)	Rucaparib	OCI-P5x (serous)	1	86.7	inactive
17	CDC42BPB (CDC42 binding protein kinase beta)	Rucaparib	OCI-P5x (serous)	2	88.7	inactive
18	CDC42BPB (CDC42 binding protein kinase beta)	Rucaparib	OCI-P5x (serous)	3	55.4	active
19	CDC42BPB (CDC42 binding protein kinase beta)	Vehicle	OCI-C5x (clear cell)	1	68.5	active
20	CDC42BPB (CDC42 binding protein kinase beta)	Vehicle	OCI-C5x (clear cell)	2	62.4	active
21	CDC42BPB (CDC42 binding protein kinase beta)	Vehicle	OCI-C5x (clear cell)	3	40.9	active
22	CDC42BPB (CDC42 binding protein kinase beta)	Vehicle	OCI-P5x (serous)	1	87.6	inactive
23	CDC42BPB (CDC42 binding protein kinase beta)	Vehicle	OCI-P5x (serous)	2	72.7	active
24	CDC42BPB (CDC42 binding protein kinase beta)	Vehicle	OCI-P5x (serous)	3	58.3	active
25	FRMPD4 (FERM and PDZ domain containing 4)	Rucaparib	OCI-C5x (clear cell)	1	38.8	active
26	FRMPD4 (FERM and PDZ domain containing 4)	Rucaparib	OCI-C5x (clear cell)	2	40.8	active
27	FRMPD4 (FERM and PDZ domain containing 4)	Rucaparib	OCI-C5x (clear cell)	3	36	active
28	FRMPD4 (FERM and PDZ domain containing 4)	Rucaparib	OCI-P5x (serous)	1	63.9	active
29	FRMPD4 (FERM and PDZ domain containing 4)	Rucaparib	OCI-P5x (serous)	2	59.8	active
30	FRMPD4 (FERM and PDZ domain containing 4)	Rucaparib	OCI-P5x (serous)	3	60	active
31	FRMPD4 (FERM and PDZ domain containing 4)	Vehicle	OCI-C5x (clear cell)	1	50.2	active
32	FRMPD4 (FERM and PDZ domain containing 4)	Vehicle	OCI-C5x (clear cell)	2	56.9	active
33	FRMPD4 (FERM and PDZ domain containing 4)	Vehicle	OCI-C5x (clear cell)	3	62.4	active
34	FRMPD4 (FERM and PDZ domain containing 4)	Vehicle	OCI-P5x (serous)	1	65.8	active
35	FRMPD4 (FERM and PDZ domain containing 4)	Vehicle	OCI-P5x (serous)	2	62.4	active
36	FRMPD4 (FERM and PDZ domain containing 4)	Vehicle	OCI-P5x (serous)	3	75.7	active
37	NR1H3 (nuclear receptor subfamily 1 group H member 3)	Rucaparib	OCI-C5x (clear cell)	1	42.5	active
38	NR1H3 (nuclear receptor subfamily 1 group H member 3)	Rucaparib	OCI-C5x (clear cell)	2	66	active
39	NR1H3 (nuclear receptor subfamily 1 group H member 3)	Rucaparib	OCI-C5x (clear cell)	3	47.7	active
40	NR1H3 (nuclear receptor subfamily 1 group H member 3)	Rucaparib	OCI-P5x (serous)	1	80.5	inactive
41	NR1H3 (nuclear receptor subfamily 1 group H member 3)	Rucaparib	OCI-P5x (serous)	2	71.8	active
42	NR1H3 (nuclear receptor subfamily 1 group H member 3)	Rucaparib	OCI-P5x (serous)	3	80.5	inactive
43	NR1H3 (nuclear receptor subfamily 1 group H member 3)	Vehicle	OCI-C5x (clear cell)	1	65.5	active
44	NR1H3 (nuclear receptor subfamily 1 group H member 3)	Vehicle	OCI-C5x (clear cell)	2	51.2	active
45	NR1H3 (nuclear receptor subfamily 1 group H member 3)	Vehicle	OCI-C5x (clear cell)	3	55.2	active
46	NR1H3 (nuclear receptor subfamily 1 group H member 3)	Vehicle	OCI-P5x (serous)	1	59.6	active
47	NR1H3 (nuclear receptor subfamily 1 group H member 3)	Vehicle	OCI-P5x (serous)	2	89.2	inactive
48	NR1H3 (nuclear receptor subfamily 1 group H member 3)	Vehicle	OCI-P5x (serous)	3	83.6	inactive
